Experimental findings from article PMC5964144 are described below.

Protein sequences, listed by entry. Tags and fused reporters are not part of them. Lines headed by an entry give the natural chain unless they say otherwise; changes in a name come on top.
UniProt Q9NZH6: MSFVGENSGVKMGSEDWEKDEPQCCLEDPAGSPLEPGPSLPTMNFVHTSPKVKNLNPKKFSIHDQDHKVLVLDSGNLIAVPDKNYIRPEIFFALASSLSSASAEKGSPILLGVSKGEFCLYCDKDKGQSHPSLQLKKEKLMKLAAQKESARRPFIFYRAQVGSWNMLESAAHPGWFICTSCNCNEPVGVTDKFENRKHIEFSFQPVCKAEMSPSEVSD
UniProt P84022: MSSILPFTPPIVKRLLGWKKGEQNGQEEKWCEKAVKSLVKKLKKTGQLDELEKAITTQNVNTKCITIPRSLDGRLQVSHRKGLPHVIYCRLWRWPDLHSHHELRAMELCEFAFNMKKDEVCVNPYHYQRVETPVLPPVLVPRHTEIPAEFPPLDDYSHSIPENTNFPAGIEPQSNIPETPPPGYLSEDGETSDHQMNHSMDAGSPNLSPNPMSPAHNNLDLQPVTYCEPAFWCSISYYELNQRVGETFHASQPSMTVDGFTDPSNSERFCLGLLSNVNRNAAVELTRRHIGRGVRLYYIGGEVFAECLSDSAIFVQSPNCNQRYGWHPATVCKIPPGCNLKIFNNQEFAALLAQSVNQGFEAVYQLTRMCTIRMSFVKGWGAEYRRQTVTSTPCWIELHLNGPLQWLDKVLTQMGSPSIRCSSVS

These are yes or no findings as the source states them, for the method shown. In cells and extracts the contact can be indirect. Binding can be weak; no strength is given.

The target of the assay is Flag-tagged IL-37d (IL-37 isoform D) (human) (UniProt Q9NZH6). As to the kind of experiment: co-IP; IL-37d-Flag and Myc-Smad3 co-transfected into HEK-293T cells; extracts in IP buffer (1.0% Nonidet P 40, 50 mM Tris-HCl pH 7.4, 50 mM EDTA, 150 mM NaCl, protease inhibitors); anti-FLAG M2 magnetic beads for 6 h, five washes; immunoblot with anti-Smad3 antibody.

Take “Myc-tagged Smad3 (from UniProt P84022 1-425)”: the binding entry is “binds”.
